Measurements from paper PMC4130184.
Results are given in words; binding and its absence hold for the method and conditions named. Binding seen in cells or lysates may run through a third protein. Here binding means that the protein was enriched with, or labelled near, the bait; the list need not be complete. Sequences can lack the tags named with a protein.

Target: T1, PLASTID REDOX … 2 (PRIN2), full length, fused to a cMyc-tag, expressed in Arabidopsis plants (Arabidopsis thaliana) (UniProt Q9XIK0)
T1 sequence: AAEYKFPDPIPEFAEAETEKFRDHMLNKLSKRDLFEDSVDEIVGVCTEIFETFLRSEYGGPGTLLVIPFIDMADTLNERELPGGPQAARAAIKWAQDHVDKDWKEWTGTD
Test: affinity purification with mass spectrometry; PRIN2-cMyc complexes precipitated from chloroplast protein extract with anti-cMYC antibody on protein G magnetic beads, 1 h at 4°C; SDS-PAGE bands identified by mass spectrometry; non-transformed Col-0 as negative control; performed twice

binding: binds
B1: CHLOROPLAST STEM-LOOP BINDING PROTEIN 41 kDa (CSP41b), endogenous in Arabidopsis chloroplasts (protein, UniProt Q9SA52 51-378)
chain: SSEKKILIMGGTRFIGLFLSRILVKEGHQVTLFTRGKSPIAKQLPGESDQDFADFSSKILHLKGDRKDYDFVKSSLSAEGFDVVYDINGREAEEVEPILEALPKLEQYIYCSSAGVYLKSDILPHCEEDAVDPKSRHKGKLETESLLQSKGVNWTSIRPVYIYGPLNYNPVEEWFFHRLKAGRPIPVPNSGIQISQLGHVKDLATAFLNVLGNEKASREIFNISGEKYVTFDGLAKACAKAGGFPEPEIVHYNPKEFDFGKKKAFPFRDQHFFASVEKAKHVLGWKPEFDLVEGLTDSYNLDFGRGTFRKEADFTTDDMILSKKLVLQ
